This experiment deals with EcMreB-K77C/T119C/C113S/C278S/C324S (E. coli) (UniProt P0A9X4). Kind of experiment: cross-linking; in vivo in E. coli FB17/pFB112/pFB124, cells at late log phase in PBSG with 5 mM EDTA, 100 µM bismaleimidoethane (BMOE) 10 min on ice, quenched with β-mercaptoethanol; Western blot with α-MreB antibodies.

This is an account of results in article PMC4051119, “Bacterial actin MreB forms antiparallel double filaments” (eLife, 2014).

Results are given in words; binding and its absence hold for the method and conditions named. Binding seen in cells or lysates may run through a third protein. Some entries that bind do so weakly or less than the wild type.

B1: EcMreB-K77C/T119C/C113S/C278S/C324S (protein, UniProt P0A9X4 1-347)
chain: MLKKFRGMFSNDLSIDLGTANTLIYVKGQGIVLNEPSVVAIRQDRAGSPKSVAAVGHDAKQMLGRTPGNIAAIRPMCDGVIADFFVTEKMLQHFIKQVHSNSFMRPSPRVLVSVPVGACQVERRAIRESAQGAGAREVFLIEEPMAAAIGAGLPVSEATGSMVVDIGGGTTEVAVISLNGVVYSSSVRIGGDRFDEAIINYVRRNYGSLIGEATAERIKHEIGSAYPGDEVREIEVRGRNLAEGVPRGFTLNSNEILEALQEPLTGIVSAVMVALEQSPPELASDISERGMVLTGGGALLRNLDRLLMEETGIPVVVAEDPLTSVARGGGKALEMIDMHGGDLFSEE
Turning to B1, the binding result is recorded as “binds”.
